{
  "source": "PubChem BioAssay AID662",
  "about": "(National Center for Advancing Translational Sciences (NCATS), 2007)",
  "note": "This is one part of the list. The main result of the screen is listed elsewhere. These columns were measured beside it and carry no call. The list favours compounds with an active or inconclusive main result. Potencies come from curve fits of mixed quality, noted in brackets.",
  "data": [
    {"assay": "Cell signaling CRE-BLA (Fsk stim)", "conditions": "CHO CRE-bla reporter (cAMP response element driving beta-lactamase), forskolin EC10, beta-lactamase ratio; measured here: 460 nm blue channel", "method_in_brief": "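CRE-bla CHO cells stimulated with EC10 NKH 477 (water-soluble forskolin) and compound titrations, 3 h at 37C; beta-lactamase read with CCF4 after 2 h at room temperature. Activity from 460/530 nm emission ratio, AC50 values for positive or negative modulation.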", "values": [
      {"smiles": "COc1cccc(C2C=C(c3ccc(OC)cc3OC)Nc3nnnn32)c1", "note": "(configuration not stated)", "AC50": "25.1 µM [rising, partial curve]"},
      {"smiles": "COc1cc(OC)c(-c2nn3c(-c4cccnc4)nnc3s2)cc1OC", "AC50": "3.16 µM [rising, partial curve]"},
      {"smiles": "Cc1c(NC(=O)CCc2ccc(S(=O)(=O)N3CCOCC3)cc2)c(=O)n(-c2ccccc2)n1C", "AC50": "5.01 µM [falling, single point]"},
      {"smiles": "CCOC(=O)CSC(CC)C(=O)Nc1nnc(C(C)C)s1", "note": "(configuration not stated)", "AC50": "10 µM [rising, partial curve]"},
      {"smiles": "COc1ccc(-c2nc3cnc(Nc4cccc(OC)c4)nc3n(CCC#N)c2=O)cc1", "AC50": "12.6 µM [rising, partial curve]"},
      {"smiles": "O=c1[nH]c(SCc2ccccc2Cl)nc2c1cnn2-c1ccccc1", "AC50": "0.501 µM [rising, full curve]"},
      {"smiles": "COc1ccc(CN2C(=O)c3cccnc3C2Nc2ccc(OC)c(Cl)c2)cc1", "note": "(configuration not stated)", "AC50": "0.00316 µM [rising, full curve, poor fit]"},
      {"smiles": "O=C(CSc1nc2cc(Cl)ccc2s1)N1CCN(C(=O)c2ccco2)CC1", "AC50": "10 µM [rising, partial curve]"},
      {"smiles": "COC(=O)c1cc(C(=O)OC)n(Cc2ccc(F)cc2)n1", "AC50": "0.794 µM [rising, single point]"},
      {"smiles": "CC(NC(=O)c1cc(-c2ccc(Br)cc2)on1)c1ccccc1", "note": "(configuration not stated)", "AC50": "0.00794 µM [falling, single point]"},
      {"smiles": "O=C(CNC(=O)c1ccc(Br)o1)Nc1cccc(-c2cnc3ccccc3n2)c1", "AC50": "3.16 µM [rising, full curve]"},
      {"smiles": "O=C(Nc1ccccc1C(=O)NCc1cccnc1)c1ccco1", "AC50": "10 µM [rising, partial curve]"},
      {"smiles": "CN(C)c1cc2c(Nc3ccc4c(cnn4Cc4ccccc4)c3)ncnc2cn1", "AC50": "25.1 µM [rising, single point]"},
      {"smiles": "COC(=O)Cn1c(=NC(=O)CSCC(=O)Nc2cc(C)on2)sc2ccccc21", "AC50": "12.6 µM [rising, partial curve]"},
      {"smiles": "N=C1C(c2ccc(Br)cc2)=C(O)C2CCc3ccccc3N12", "note": "(configuration not stated)", "AC50": "0.251 µM [falling, partial curve, poor fit]"},
      {"smiles": "CN1CCc2c(sc3c2C(=O)NC(c2cccs2)N3)C1", "note": "(configuration not stated)", "AC50": "12.6 µM [rising, partial curve]"},
      {"smiles": "CCOC(=O)c1cc2c(=O)n(C)c3ccccc3c2s1", "AC50": "0.251 µM [falling, partial curve]"},
      {"smiles": "O=C(Nc1ccc(Cl)cn1)Nc1cccs1", "AC50": "1 µM [falling, partial curve, poor fit]"},
      {"smiles": "O=C(NCc1ccc2c(c1)OCO2)c1cc(S(=O)(=O)N2CCCCC2)ccc1F", "AC50": "12.6 µM [falling, single point]"},
      {"smiles": "CCOC(=O)c1[nH]c2ccccc2c1NC(=O)c1ccc(Br)o1", "AC50": "3.16 µM [rising, partial curve]"},
      {"smiles": "COc1ccccc1OC(C)C(=O)O", "note": "(configuration not stated)", "AC50": "0.01 µM [falling, full curve, poor fit]"},
      {"smiles": "COc1cccc(-n2c(C)nc3c(cnn3-c3ccc(C)cc3)c2=O)c1", "AC50": "0.00316 µM [falling, full curve, poor fit]"},
      {"smiles": "O=C1c2ccccc2-c2ccc(NC(=O)[C@H]3CCCC[C@@H]3C(=O)O)cc21", "AC50": "3.98 µM [rising, single point]"},
      {"smiles": "COc1ccc(Cc2nnc(SCC(=O)NCc3ccco3)o2)cc1", "AC50": "10 µM [falling, single point]"},
      {"smiles": "O=C(Cn1cnc2c(nnn2Cc2ccc(F)cc2)c1=O)NC1CCCC1", "AC50": "0.316 µM [falling, full curve]"},
      {"smiles": "N#Cc1cccc(-c2nccc(NCc3cccnc3)n2)c1", "AC50": "5.01 µM [rising, partial curve]"},
      {"smiles": "Cc1ccc(/C=C/C2=Cc3c(sc(NC(=O)CSc4n[nH]c(N)n4)c3C#N)C(C)(C)C2)o1", "AC50": "6.31 µM [falling, partial curve]"},
      {"smiles": "COc1cc(Nc2nc(SCC#N)nc3ccccc23)cc(OC)c1OC", "AC50": "12.6 µM [rising, single point]"},
      {"smiles": "O=C1C=CC2=C3c4cc(O)c(O)cc4C[C@@]3(O)COC2=C1O", "AC50": "2.51 µM [rising, partial curve, poor fit]"},
      {"smiles": "CN1CCc2c(sc3c2C(=O)NC(c2ccc(-c4cccc(Cl)c4)o2)N3)C1", "note": "(configuration not stated)", "AC50": "2.51 µM [rising, partial curve]"},
      {"smiles": "Cc1cc(Br)ccc1NC(=O)CNC(=O)CN1C(=O)NC2(CCCCCC2)C1=O", "AC50": "5.01 µM [falling, single point]"},
      {"smiles": "c1ccc(-c2cc(-c3nc(-c4cccnc4)no3)c3ccccc3n2)cc1", "AC50": "3.16 µM [rising, single point]"},
      {"smiles": "Nc1cccc2c1C(=O)N(C(=O)c1ccc(S(=O)(=O)N3CCCCCC3)cc1)C2=O", "AC50": "12.6 µM [rising, single point]"},
      {"smiles": "CCN(CCCNC(=O)C1CCN(S(=O)(=O)CC)CC1)c1cccc(C)c1", "AC50": "0.631 µM [rising, full curve]"},
      {"smiles": "CC(NC(=O)Nc1ccccc1O)(C(F)(F)F)C(F)(F)F", "AC50": "0.00316 µM [falling, full curve, poor fit]"},
      {"smiles": "COc1ccc(-n2ncc3c(N4CCCc5ccccc54)ncnc32)cc1", "AC50": "2 µM [rising, full curve]"},
      {"smiles": "CCOc1ccccc1NC(=O)c1ccc2nccnc2c1", "AC50": "15.8 µM [rising, partial curve, poor fit]"},
      {"smiles": "COc1cc2c3c(c1)/C(=C1/SC(NC(C)=O)=NC1=O)C(=O)N3C(C)(C)C=C2C", "AC50": "12.6 µM [rising, partial curve]"},
      {"smiles": "Cc1nn(Cc2ccccc2)c(Cl)c1C(=O)OC1CCOC1=O", "note": "(configuration not stated)", "AC50": "5.01 µM [falling, partial curve]"},
      {"smiles": "COC(=O)c1cc(OC)c(OC)cc1NC(=O)c1cnccn1", "AC50": "12.6 µM [rising, single point]"},
      {"smiles": "CCOC(=O)C1CCN(C(=O)CNS(=O)(=O)c2ccc(Br)s2)CC1", "AC50": "0.251 µM [falling, partial curve]"},
      {"smiles": "CC(=O)ON(C(C)=O)S(=O)(=O)c1ccc(Cl)cc1", "AC50": "31.6 µM [falling, single point]"},
      {"smiles": "CC(=O)c1ccc(NC(=O)C2CC(c3ccc(F)cc3)=NO2)cc1", "note": "(configuration not stated)", "AC50": "1.26 µM [falling, partial curve]"},
      {"smiles": "COc1cccc(Nc2ncc3nc(CCc4ccccc4)c(=O)n(Cc4cccs4)c3n2)c1", "AC50": "3.16 µM [rising, partial curve]"},
      {"smiles": "CC(CCc1ccco1)NC(=O)Nc1cccc(F)c1", "note": "(configuration not stated)", "AC50": "15.8 µM [falling, single point]"},
      {"smiles": "CCn1c(=O)n(CCOC)c(=O)c2c3c(sc21)CCCC3", "AC50": "25.1 µM [rising, single point]"},
      {"smiles": "Nc1c(C(=O)NC2CCCCC2)c2nc3ccccc3nc2n1/N=C/c1ccco1", "AC50": "5.01 µM [rising, partial curve]"},
      {"smiles": "O=C(c1ccc2c(c1)[nH]c(=S)n1c3ccccc3nc21)N1CCN(c2ncccn2)CC1", "AC50": "5.01 µM [rising, partial curve]"},
      {"smiles": "O=C(CSC1=NCCS1)Nc1nc2c(s1)CCCC2", "AC50": "2 µM [falling, single point]"},
      {"smiles": "CN1CCN(c2ncc3nc(-c4cccs4)c(=O)n(Cc4ccc(F)cc4)c3n2)CC1", "AC50": "1.58 µM [rising, full curve]"},
      {"smiles": "O=C(NCCn1ccc2ccccc21)c1ccc(S(=O)(=O)N2CCOCC2)cc1", "AC50": "5.01 µM [rising, partial curve]"},
      {"smiles": "CCOC(=O)c1c(NC(=O)CSc2nnc(-c3ccccc3C)n2C)sc(C(C)=O)c1C", "AC50": "0.631 µM [falling, single point]"},
      {"smiles": "CCOc1ccc(NC(=O)CN(C)S(=O)(=O)c2cccs2)cc1", "AC50": "0.316 µM [falling, full curve]"},
      {"smiles": "CN(Cc1ccccc1)c1nc2c(c(=O)[nH]c(=O)n2C)n1Cc1ccccc1Cl", "AC50": "5.01 µM [rising, partial curve]"},
      {"smiles": "COc1ccc(C(=O)CSc2n[nH]c(-c3ccco3)n2)cc1", "AC50": "3.16 µM [rising, partial curve]"},
      {"smiles": "CCS(=O)(=O)N1CCC(C(=O)NCCCN2CCCCCC2)CC1", "AC50": "3.98 µM [falling, partial curve]"},
      {"smiles": "Cc1nn(-c2ccccc2)c2c1/C(=N/O)CC(C)(C)C2", "AC50": "12.6 µM [rising, single point]"},
      {"smiles": "O=c1c(-c2ccc(F)cc2)nc2cnc(Oc3ccccc3)nc2n1C[C@H]1CCCO1", "AC50": "12.6 µM [rising, partial curve]"},
      {"smiles": "CC1CC(C)CN(c2nc3c(c(=O)[nH]c(=O)n3C)n2CCCSc2nc3ccccc3s2)C1", "note": "(configuration not stated)", "AC50": "2.51 µM [rising, single point]"},
      {"smiles": "CCOC(=O)c1cnc2nc(Cc3ccccc3)[nH]n2c1=O", "AC50": "0.631 µM [falling, full curve, poor fit]"},
      {"smiles": "COc1cc(OC)c(CN2CCN(c3ccc(F)cc3)CC2)cc1Br", "AC50": "0.398 µM [rising, partial curve]"},
      {"smiles": "COc1ccc(CC(=O)NCc2ccccc2)cc1S(=O)(=O)N1CCOCC1", "AC50": "3.98 µM [falling, partial curve]"},
      {"smiles": "CCCc1c(C)c2ccc(OCC(C)=O)cc2oc1=O", "AC50": "12.6 µM [rising, single point]"},
      {"smiles": "CC1=C(C(=O)OCCOC(C)C)C(c2cc3c(cc2Br)OCO3)C2=C(CCCC2=O)N1", "note": "(configuration not stated)", "AC50": "25.1 µM [falling, single point]"},
      {"smiles": "c1ccc(-c2ccc(N3CC4(CCNCC4)C3)cc2)cc1", "AC50": "25.1 µM [rising, single point]"},
      {"smiles": "Cn1nnnc1SCC(=O)Nc1ccccc1C(=O)NCc1ccccc1", "AC50": "0.00316 µM [falling, full curve, poor fit]"},
      {"smiles": "O=c1cnc2ccccc2n1CC1CCCCC1", "AC50": "3.98 µM [falling, single point]"}
    ]}
  ]
}
